Source: PMC6401139
No constants are given. Whether binding was seen depends on the method and setting. Binding seen in cells or lysates may run through a third protein. Some binding calls cover weakened binding; strength is not graded here.

Protein sequences, listed by entry. Tags and fused reporters are not part of them. Lines headed by an entry give the natural chain unless they say otherwise; changes in a name come on top. Chains listed by the source or under a name are the forms on record and can include a tag or linker.
FGFR2 (endogenous) (human (endogenous in DU145 and PC3)) (P21802, form named): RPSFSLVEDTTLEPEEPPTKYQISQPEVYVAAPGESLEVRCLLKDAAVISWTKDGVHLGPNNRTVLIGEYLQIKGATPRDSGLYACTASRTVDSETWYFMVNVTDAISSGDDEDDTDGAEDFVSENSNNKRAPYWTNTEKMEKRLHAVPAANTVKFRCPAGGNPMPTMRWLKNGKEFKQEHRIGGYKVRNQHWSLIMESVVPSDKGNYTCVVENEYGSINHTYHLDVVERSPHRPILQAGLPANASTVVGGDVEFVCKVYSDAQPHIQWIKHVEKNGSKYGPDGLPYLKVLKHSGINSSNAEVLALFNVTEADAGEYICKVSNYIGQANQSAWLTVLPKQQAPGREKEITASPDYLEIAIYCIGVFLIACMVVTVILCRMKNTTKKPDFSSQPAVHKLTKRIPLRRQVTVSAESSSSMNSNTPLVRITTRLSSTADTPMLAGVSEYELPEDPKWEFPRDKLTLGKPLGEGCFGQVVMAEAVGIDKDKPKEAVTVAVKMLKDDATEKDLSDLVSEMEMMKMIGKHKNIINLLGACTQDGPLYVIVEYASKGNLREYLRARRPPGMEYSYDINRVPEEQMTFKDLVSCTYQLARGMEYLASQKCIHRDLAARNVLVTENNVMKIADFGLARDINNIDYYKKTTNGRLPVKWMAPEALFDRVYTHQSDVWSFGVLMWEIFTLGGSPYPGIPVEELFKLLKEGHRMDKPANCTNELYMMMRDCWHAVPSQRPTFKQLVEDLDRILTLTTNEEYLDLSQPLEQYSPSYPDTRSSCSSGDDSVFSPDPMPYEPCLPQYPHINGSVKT
UniProt Q99814: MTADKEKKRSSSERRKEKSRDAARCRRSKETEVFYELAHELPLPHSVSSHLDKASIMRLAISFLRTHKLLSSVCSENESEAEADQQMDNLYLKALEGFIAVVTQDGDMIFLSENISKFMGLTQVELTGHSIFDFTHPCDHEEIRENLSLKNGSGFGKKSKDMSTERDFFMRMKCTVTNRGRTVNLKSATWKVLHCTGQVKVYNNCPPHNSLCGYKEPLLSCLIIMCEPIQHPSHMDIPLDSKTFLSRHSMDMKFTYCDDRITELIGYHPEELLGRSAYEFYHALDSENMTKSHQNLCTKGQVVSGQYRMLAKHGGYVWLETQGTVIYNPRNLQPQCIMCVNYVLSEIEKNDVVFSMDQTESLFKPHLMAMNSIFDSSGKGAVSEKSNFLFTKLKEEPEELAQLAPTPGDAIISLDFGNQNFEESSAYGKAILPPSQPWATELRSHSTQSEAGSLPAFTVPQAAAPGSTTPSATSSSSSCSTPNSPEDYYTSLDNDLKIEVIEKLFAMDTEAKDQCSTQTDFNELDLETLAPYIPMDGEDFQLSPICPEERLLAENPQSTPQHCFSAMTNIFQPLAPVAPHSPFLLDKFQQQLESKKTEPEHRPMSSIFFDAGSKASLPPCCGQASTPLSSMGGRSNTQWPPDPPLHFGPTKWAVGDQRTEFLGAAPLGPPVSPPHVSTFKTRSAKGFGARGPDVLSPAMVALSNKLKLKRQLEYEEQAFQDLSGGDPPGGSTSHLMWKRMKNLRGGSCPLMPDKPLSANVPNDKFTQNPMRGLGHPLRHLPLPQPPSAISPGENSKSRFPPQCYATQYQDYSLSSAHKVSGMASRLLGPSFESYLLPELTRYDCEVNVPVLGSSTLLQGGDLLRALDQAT

Molecular target: FGFR2 (endogenous) (human (endogenous in DU145 and PC3)) (UniProt P21802)
Experiment: co-IP; endogenous proteins; DU145 and PC3 cells, normoxia or hypoxia 8 h; lysates precipitated with IgG or anti-FGFR2, protein A/G beads; immunoblot

| Substance | binding |
| --- | --- |
| HIF-1α (endogenous) (from UniProt Q16665-1 1-826) | binds |
| HIF-2α (endogenous) (from UniProt Q99814 1-870) | binds |
